Data as given in patent US20180237774A1, “METHODS OF SCREENING FOR RIBOSWITCHES AND ATTENUATORS” (priority 2015, published 2018).

System: B. subtilis
Experiment: Sublethal antibiotic concentration determination (growth-rate monitoring)
Assay type: cell-based, Bacillus subtilis str. 168
Description: A sublethal concentration for the antibiotics lincomycin, erythromycin, chloramphenicol, kanamycin, ofloxacin, ampicilin and bacitracin (Sigma) was determined for each of the organisms used in this study as follows. Bacterial cultures were propagated in LB or BHI O.N. in triplicates and diluted 1:200 into fresh media. Cultures were grown to early exponential phase (OD600=0.1-0.2) and then supplemented with serially diluted antibiotics stocks. The growth rate was dynamically monitored in intervals of 10-15 min using a 96 well plate format OD reader (Infinite M200 Tecan) for a period of at least 4 hours. […] To identify antibiotic-responsive regulators, bacteria were grown in LB or BHI in triplicates as described above and, upon reaching early exponential phase, 5 ml cultures were independently exposed for 15 minutes to the sublethal concentration of each antibiotic as determined above. Bacteria were then collected by centrifugation, flash frozen and stored in −80° C. until RNA extraction.

O=C(O)c1cn(C2CC2)c2cc(N3CCNCC3)c(F)cc2c1=O [Ciprofloxacin]
Sublethal concentration (highest antibiotics concentration that did not cause growth-rate inhibition) (Table 2): 0.0625 µg/mL
Sublethal concentrations of antibiotics used in this study (Table 6): 0.0625 µg/mL
